# Test results taken from patent US20100311749A1, “4-BENZOYL-1-SUBSTITUTED-PIPERAZIN-2-ONE DERIVATIVES AS P2X7 MODULATORS” (priority 2007, published 2010).
# Some of these results come from one statement about several compounds together.
# Target: T1, human P2X7 receptor (Homo sapiens, UniProt Q99572)
# T1 construct: expressed in transfected cells
# T1 sequence (Q99572 1-595): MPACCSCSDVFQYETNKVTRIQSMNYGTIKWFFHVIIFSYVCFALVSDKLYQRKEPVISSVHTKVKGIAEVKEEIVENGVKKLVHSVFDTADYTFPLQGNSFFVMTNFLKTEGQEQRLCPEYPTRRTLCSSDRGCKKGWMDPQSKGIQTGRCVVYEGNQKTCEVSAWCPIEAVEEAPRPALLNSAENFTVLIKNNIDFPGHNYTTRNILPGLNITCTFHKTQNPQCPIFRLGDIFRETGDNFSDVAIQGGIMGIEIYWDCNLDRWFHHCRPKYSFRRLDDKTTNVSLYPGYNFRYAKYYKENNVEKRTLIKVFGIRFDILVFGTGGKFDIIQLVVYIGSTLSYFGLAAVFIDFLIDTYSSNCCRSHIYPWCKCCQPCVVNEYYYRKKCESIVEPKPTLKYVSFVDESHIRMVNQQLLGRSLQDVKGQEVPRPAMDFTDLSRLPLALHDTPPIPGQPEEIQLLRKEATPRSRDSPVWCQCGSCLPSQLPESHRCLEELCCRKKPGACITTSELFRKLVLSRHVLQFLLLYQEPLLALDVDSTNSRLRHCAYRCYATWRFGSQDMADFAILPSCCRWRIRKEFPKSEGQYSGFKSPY
# Test: Fluorescent Imaging Plate Reader (FLIPR) Ca Assay
# Assay type: cell-based
# Details: HEK293 or U-2OS cells expressing human recombinant P2X7 receptors; BzATP close to EC80; values given as 'about'
row,Structure (SMILES),pIC50 for human P2X7 receptor antagonist activity (blocking BzATP responses) in the FLIPR Ca Assay
1,"O=C1CN(C(=O)c2cccc(C(F)(F)F)c2Cl)CCN1CC1CCC1 [Example 51, 4-{[2-chloro-3-(trifluoromethyl)phenyl]carbonyl}-1-(cyclobutylmethyl)-2-piperazinone]",≥ 5.0
2,"O=C(c1cccc(Cl)c1Cl)N1CCN(c2cc(N3CCOCC3)ccc2Cl)C(=O)C1 [Example 76, 1-[2-chloro-5-(4-morpholinyl)phenyl]-4-[(2,3-dichlorophenyl)carbonyl]-2-piperazinone]",≥ 5.0
3,"CC(c1ccccc1)N1CCN(C(=O)c2cccc(C(F)(F)F)c2Cl)CC1=O (stereo not shown) [Example 85, 4-{[2-chloro-3-(trifluoromethyl)phenyl]carbonyl}-1-(1-phenylethyl)-2-piperazinone]",≥ 5.0
4,"CC(C)Oc1cc(F)ccc1N1CCN(C(=O)c2cccc(C(F)(F)F)c2Cl)CC1=O [Example 57, 4-{[2-chloro-3-(trifluoromethyl)phenyl]carbonyl}-1-{4-fluoro-2-[(1-methylethyl)oxy]phenyl}-2-piperazinone]",≥ 5.0
5,"O=C(c1cccc(C(F)(F)F)c1Cl)N1CCN(c2cc(N3CCOCC3)ccc2Cl)C(=O)C1 [Example 78, 1-[2-chloro-5-(4-morpholinyl)phenyl]-4-{[2-chloro-3-(trifluoromethyl)phenyl]-carbonyl}-2-piperazinone]",≥ 5.0
6,"CC(C#N)N1CCN(C(=O)c2cccc(C(F)(F)F)c2Cl)CC1=O (stereo not shown) [Example 72, 2-(4-{[2-chloro-3-(trifluoromethyl)phenyl]carbonyl}-2-oxo-1-piperazinyl)propanenitrile]",≥ 5.0
7,"CC(C)CN1CCN(C(=O)c2cccc(Cl)c2Cl)CC1=O [Example 39, 4-[(2,3-dichlorophenyl)carbonyl]-1-(2-methylpropyl)-2-piperazinone]",≥ 5.0
8,"CC(C)c1ccccc1N1CCN(C(=O)c2cccc(C(F)(F)F)c2Cl)CC1=O [Example 25, 4-{[2-chloro-3-(trifluoromethyl)phenyl]carbonyl}-1-[2-(1-methylethyl)phenyl]-2-piperazinone]",≥ 5.0
9,"Cc1ccc(N2CCOCC2)cc1N1CCN(C(=O)c2cccc(Cl)c2Cl)CC1=O [Example 54, 4-[(2,3-dichlorophenyl)carbonyl]-1-[2-methyl-5-(4-morpholinyl)phenyl]-2-piperazinone]",≥ 5.0
10,"O=C(c1ccc(F)c(F)c1Cl)N1CCN(c2ccc(F)cc2Cl)C(=O)C1 [Example 32, 4-[(2-chloro-3,4-difluorophenyl)carbonyl]-1-(2-chloro-4-fluorophenyl)-2-piperazinone]",≥ 5.0
11,"Cc1ccc(-c2cccc(N3CCN(C(=O)c4cccc(C(F)(F)F)c4Cl)CC3=O)c2C)cn1 [Example 84, 4-{[2-chloro-3-(trifluoromethyl)phenyl]carbonyl}-1-[2-methyl-3-(6-methyl-3-pyridinyl)phenyl]-2-piperazinone]",≥ 5.0
12,"O=C1CN(C(=O)c2cccc(C(F)(F)F)c2Cl)CCN1Cc1ccncc1 [Example 67, 4-{[2-chloro-3-(trifluoromethyl)phenyl]carbonyl}-1-(4-pyridinylmethyl)-2-piperazinone]",≥ 5.0
13,"N#Cc1cc(F)ccc1N1CCN(C(=O)c2cccc(C(F)(F)F)c2Cl)CC1=O [Example 50, 2-(4-{[2-chloro-3-(trifluoromethyl)phenyl]carbonyl}-2-oxo-1-piperazinyl)-5-fluorobenzonitrile]",≥ 5.0
14,"O=C(c1cccc(C(F)(F)F)c1Cl)N1CCN(C2CCCC2)C(=O)C1 [Example 52, 4-{[2-chloro-3-(trifluoromethyl)phenyl]carbonyl}-1-cyclopentyl-2-piperazinone]",≥ 5.0
15,"O=C1CN(C(=O)c2cccc(Cl)c2Cl)CCN1Cc1ccc(F)cc1Cl [Example 15, 1-[(2-Chloro-4-fluorophenyl)methyl]-4-[(2,3-dichlorophenyl)carbonyl]-2-piperazinone]",≥ 5.5
16,"O=C(c1cccc(C(F)(F)F)c1Cl)N1CCN(c2ccc(F)cc2Cl)C(=O)C1 [Example 10, 1-(2-Chloro-4-fluorophenyl)-4-{[2-chloro-3-(trifluoromethyl)phenyl]carbonyl}-2-piperazinone]",≥ 5.5
17,"O=C1CN(C(=O)c2cccc(C(F)(F)F)c2Cl)CCN1CC1CCCCC1 [Example 66, 4-{[2-chloro-3-(trifluoromethyl)phenyl]carbonyl}-1-(cyclohexylmethyl)-2-piperazinone]",≥ 5.0
18,"Cc1ccccc1N1CCN(C(=O)c2ccc(Cl)cc2Cl)CC1=O [Example 2, 4-[(2,4-Dichlorophenyl)carbonyl]-1-(2-methylphenyl)-2-piperazinone]",≥ 5.5
19,"CN1CCN(C(=O)c2cccc(C(F)(F)F)c2Cl)CC1=O [Example 35, 4-{[2-chloro-3-(trifluoromethyl)phenyl]carbonyl}-1-methyl-2-piperazinon]",≥ 5.0
20,"O=C(c1ccc(Cl)cc1Cl)N1CCN(c2ccccc2Cl)C(=O)C1 [Example 8, 1-(2-Chlorophenyl)-4-[(2,4-dichlorophenyl)carbonyl]-2-piperazinone]",≥ 5.5
21,"O=C(c1cccc(Cl)c1Cl)N1CCN(c2ccc(F)cc2Cl)C(=O)C1 [Example 11, 1-(2-Chloro-4-fluorophenyl)-4-[(2,3-dichlorophenyl)carbonyl]-2-piperazinone]",≥ 5.5
22,"Cc1ccccc1N1CCN(C(=O)c2cccc(C(F)(F)F)c2Cl)CC1=O [Example 1, 4-{[2-Chloro-3-(trifluoromethyl)phenyl]carbonyl}-1-(2-methylphenyl)-2-piperazinone]",≥ 5.5
23,"O=C(c1c(F)ccc(F)c1Cl)N1CCN(c2ccc(F)cc2Cl)C(=O)C1 [Example 33, 4-[(2-chloro-3,6-difluorophenyl)carbonyl]-1-(2-chloro-4-fluorophenyl)-2-piperazinone]",≥ 5.0
24,"COc1ccc(I)cc1N1CCN(C(=O)c2cccc(C(F)(F)F)c2Cl)CC1=O [Example 64, 4-{[2-chloro-3-(trifluoromethyl)phenyl]carbonyl}-1-[5-iodo-2-(methyloxy)phenyl]-2-piperazinone]",≥ 5.0
25,"O=C(c1cccc(C(F)(F)F)c1F)N1CCN(c2ccc(F)cc2Cl)C(=O)C1 [Example 56, 1-(2-chloro-4-fluorophenyl)-4-{[2-fluoro-3-(trifluoromethyl)phenyl]carbonyl}-2-piperazinone]",≥ 5.0
